Assay results reported in patent publication US20230125500A1, “ANGIOSTATIN NEUTRALIZING PEPTIDES DERIVED FROM ATP SYNTHASE ALPHA SUBUNIT” (The Governors of the University of Alberta, priority 2021, published 2023).

Chains of the proteins cited; added tags and fusions are not shown. Residues count along the entry.
UniProt P00747, residues 99-459: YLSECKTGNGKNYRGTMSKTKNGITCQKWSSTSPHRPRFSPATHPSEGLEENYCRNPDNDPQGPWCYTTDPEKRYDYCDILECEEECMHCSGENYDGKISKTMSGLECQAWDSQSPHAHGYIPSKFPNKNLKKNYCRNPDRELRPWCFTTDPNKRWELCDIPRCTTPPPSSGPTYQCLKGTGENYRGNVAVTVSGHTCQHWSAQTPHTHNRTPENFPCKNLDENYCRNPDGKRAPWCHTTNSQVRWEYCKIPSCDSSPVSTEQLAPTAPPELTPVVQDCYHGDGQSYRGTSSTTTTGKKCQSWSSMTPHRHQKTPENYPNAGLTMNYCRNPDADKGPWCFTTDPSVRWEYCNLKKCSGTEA

B1: Alpha peptide 3 (peptide)
peptide: AVDSLVPIGR
B2: Alpha peptide 2 (peptide)
peptide: TSIAIDTIINQK
B3: Alpha peptide 1 (peptide)
peptide: TGTAEMSSILEER

Each binder was assayed against angiostatin K1-4 (UniProt P00747) (assay: co-immunoprecipitation with angiostatin K1-4, mass spectrometry).

binding, binds:
B1
B2
B3

These are yes or no findings as the source states them, for the method shown. In cells and extracts the contact can be indirect. These calls come from enrichment with a bait or labelling near it, and not all partners need be listed.
